Results: publication PMC5495492
Like-named read-outs stand apart in the source and are kept apart here. Results are given in words; binding and its absence hold for the method and conditions named. In cells and extracts the contact can be indirect. Here binding means that the protein was enriched with, or labelled near, the bait; the list need not be complete. For some assays here: No binding means not detected with the bait.

The chains behind the UniProt entries cited, without tags or fusion partners. Where a name states a change or a piece, a line headed by the entry shows the natural chain unless it says otherwise.
UniProt Q8LPR5: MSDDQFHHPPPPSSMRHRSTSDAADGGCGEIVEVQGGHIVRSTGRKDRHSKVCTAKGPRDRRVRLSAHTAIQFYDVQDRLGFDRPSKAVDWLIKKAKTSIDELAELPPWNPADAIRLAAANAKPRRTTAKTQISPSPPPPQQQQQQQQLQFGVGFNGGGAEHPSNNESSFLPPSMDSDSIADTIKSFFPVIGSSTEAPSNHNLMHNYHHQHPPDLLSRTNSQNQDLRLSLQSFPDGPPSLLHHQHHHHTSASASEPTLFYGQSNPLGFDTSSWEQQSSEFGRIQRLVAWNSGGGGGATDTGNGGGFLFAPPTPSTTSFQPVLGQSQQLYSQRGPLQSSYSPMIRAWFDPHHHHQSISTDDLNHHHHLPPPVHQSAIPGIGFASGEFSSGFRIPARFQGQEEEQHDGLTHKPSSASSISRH
UniProt Q9SQI2: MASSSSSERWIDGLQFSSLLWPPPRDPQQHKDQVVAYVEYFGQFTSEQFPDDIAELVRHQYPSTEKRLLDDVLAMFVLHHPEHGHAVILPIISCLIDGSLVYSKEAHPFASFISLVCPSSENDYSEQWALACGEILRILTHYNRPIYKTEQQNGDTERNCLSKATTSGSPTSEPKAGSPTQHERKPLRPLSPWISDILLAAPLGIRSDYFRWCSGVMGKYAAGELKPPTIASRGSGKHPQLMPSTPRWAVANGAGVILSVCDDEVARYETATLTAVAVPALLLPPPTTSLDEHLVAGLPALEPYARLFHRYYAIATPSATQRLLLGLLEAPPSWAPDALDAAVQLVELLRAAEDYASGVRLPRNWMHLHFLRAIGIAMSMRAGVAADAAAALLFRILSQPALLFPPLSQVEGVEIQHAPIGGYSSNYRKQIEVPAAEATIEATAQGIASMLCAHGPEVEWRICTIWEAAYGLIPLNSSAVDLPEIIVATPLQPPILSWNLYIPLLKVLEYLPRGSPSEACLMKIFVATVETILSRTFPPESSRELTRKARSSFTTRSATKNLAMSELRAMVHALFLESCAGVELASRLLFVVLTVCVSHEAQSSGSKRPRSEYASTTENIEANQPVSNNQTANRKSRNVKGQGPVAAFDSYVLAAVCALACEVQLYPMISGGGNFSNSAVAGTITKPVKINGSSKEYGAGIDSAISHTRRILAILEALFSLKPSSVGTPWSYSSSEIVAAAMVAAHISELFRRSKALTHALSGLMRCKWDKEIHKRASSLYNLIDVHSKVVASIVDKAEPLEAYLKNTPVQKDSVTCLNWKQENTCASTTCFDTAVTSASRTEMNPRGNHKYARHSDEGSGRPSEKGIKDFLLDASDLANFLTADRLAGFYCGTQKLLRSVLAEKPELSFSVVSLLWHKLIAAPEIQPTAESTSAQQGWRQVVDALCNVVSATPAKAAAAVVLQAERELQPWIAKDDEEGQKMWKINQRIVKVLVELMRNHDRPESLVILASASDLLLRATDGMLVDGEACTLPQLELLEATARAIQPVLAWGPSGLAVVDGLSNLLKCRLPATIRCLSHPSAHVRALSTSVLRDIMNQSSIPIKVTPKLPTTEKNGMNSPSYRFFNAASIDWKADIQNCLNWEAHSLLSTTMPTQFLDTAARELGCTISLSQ

Columns and labels:
[1] = molecular target: TCP4-3F6H (Arabidopsis thaliana) (UniProt Q8LPR5); experiment: affinity purification with mass spectrometry; tandem affinity purification (anti-FLAG Dynabeads, then as in ref. 67) of TCP4-3F6H from 2-week-old 35S:TCP4-3F6H seedlings in WT and gi-2 backgrounds harvested at ZT13; Col-0 as control; on-bead digestion, LC-MS/MS
[2] = molecular target: TCP4-3F6H (Arabidopsis thaliana) (UniProt Q8LPR5); experiment: as above; remark: listed apart in the source

binding [1]	binding [2]	Molecule
no binding	–	GIGANTEA (GI), endogenous (from UniProt Q9SQI2 1-1173)
–	binds	TCP3, endogenous (protein, UniProt Q9MAH8 1-391) MAPDNDHFLDSPSPPLLEMRHHQSATENGGGCGEIVEVQGGHIVRSTGRKDRHSKVCTAKGPRDRRVRLSAPTAIQFYDVQDRLGFDRPSKAVDWLITKAKSAIDDLAQLPPWNPADTLRQHAAAAANAKPRKTKTLISPPPPQPEETEHHRIGEEEDNESSFLPASMDSDSIADTIKSFFPVASTQQSYHHQPPSRGNTQNQDLLRLSLQSFQNGPPFPNQTEPALFSGQSNNQLAFDSSTASWEQSHQSPEFGKIQRLVSWNNVGAAESAGSTGGFVFASPSSLHPVYSQSQLLSQRGPLQSINTPMIRAWFDPHHHHHHHQQSMTTDDLHHHHPYHIPPGIHQSAIPGIAFASSGEFSGFRIPARFQGEQEEHGGDNKPSSASSDSRH
–	binds	TCP5, endogenous (protein, UniProt Q9FME3 1-360) MRSGECDEEEIQAKQERDQNQNHQVNLNHMLQQQQPSSVSSSRQWTSAFRNPRIVRVSRTFGGKDRHSKVCTVRGLRDRRIRLSVPTAIQLYDLQDRLGLSQPSKVIDWLLEAAKDDVDKLPPLQFPHGFNQMYPNLIFGNSGFGESPSSTTSTTFPGTNLGFLENWDLGGSSRTRARLTDTTTTQRESFDLDKGKWIKNDENSNQDHQGFNTNHQQQFPLTNPYNNTSAYYNLGHLQQSLDQSGNNVTVAISNVAANNNNNLNLHPPSSSAGDGSQLFFGPTPPAMSSLFPTYPSFLGASHHHHVVDGAGHLQLFSSNSNTASQQHMMPGNTSLIRPFHHLMSSNHDTDHHSSDNESDS
–	binds	TCP17, endogenous (protein, UniProt Q9LEZ9 1-242) MGIKKEDQKSSLSLLTQRWNNPRIVRVSRAFGGKDRHSKVCTVRGLRDRRIRLSVMTAIQVYDLQERLGLSQPSKVIDWLLEVAKNDVDLLPPLQFPPGFHQLNPNLTGLGESFPGVFDLGRTQREALDLEKRKWVNLDHVFDHIDHHNHFSNSIQSNKLYFPTITSSSSSYHYNLGHLQQSLLDQSGNVTVAFSNNYNNNNLNPPAAETMSSLFPTRYPSFLGGGQLQLFSSTSSQPDHIE
–	binds	TCP2, endogenous (protein, UniProt Q93V43 1-365) MIGDLMKNNNNGDVVDNEVNNRLSRWHHNSSRIIRVSRASGGKDRHSKVLTSKGPRDRRVRLSVSTALQFYDLQDRLGYDQPSKAVEWLIKAAEDSISELPSLNNTHFPTDDENHQNQTLTTVAANSLSKSACSSNSDTSKNSSGLSLSRSELRDKARERARERTAKETKERDHNHTSFTDLLNSGSDPVNSNRQWMASAPSSSPMEYFSSGLILGSGQQTHFPISTNSHPFSSISDHHHHHPHHQHQEFSFVPDHLISPAESNGGAFNLDFNMSTPSGAGAAVSAASGGGFSGFNRGTLQSNSTNQHQSFLANLQRFPTSESGGGPQFLFGALPAENHHHNHQFQLYYENGCRNSSEHKGKGKN
–	binds	TCP10, endogenous (protein, UniProt O82277 1-361) MGLKGYSVGEGGGEIVEVQGGHIIRATGRKDRHSKVFTSKGPRDRRVRLSAHTAIQFYDVQDRLGYDRPSKAVDWLIKKAKTAIDKLELGETTTTTTRQEPVNTKPESPTLVFQRENNDQTQFVAANLDPEDAMKTFFPATTTTNGGGGTNINFQNYPHQDDNNMVSRTTTPPPNLSQDLGLSLHPFQGNNNTVVVPETNNFTTTHFDTFGRISGWNHHDLTMTSSSSSEHQQQEQEERSNGGFMVNHHPHHHHHQPSMMTLLNSQQQQVFLGGQQQQQQRGTLQSSLFPHSFRSWDHHQTTSDHHHHQNQASSMFASSSQYGSHGMMMMQGLSFPNTTRLLHGEEATQPNSSSSPPNSHL
–	binds	TCP24, endogenous (protein, UniProt Q9C758 1-324) MEVDEDIELQKHQEQQSRKLQRFSEDNTGLMRNWNNPSSRIIRVSRASGGKDRHSKVLTSKGLRDRRIRLSVATAIQFYDLQDRLGFDQPSKAVEWLINAASDSITDLPLLNTNFDHLDQNQNQTKSACSSGTSESSLLSLSRTEIRGKARERARERTAKDRDKDLQNAHSSFTQLLTGGFDQQPSNRNWTGGSDCFNPVQLQIPNSSSQEPMNHPFSFVPDYNFGISSSSSAINGGYSSRGTLQSNSQSLFLNNNNNITQRSSISSSSSSSSPMDSQSISFFMATPPPLDHHNHQLPETFDGRLYLYYGEGNRSSDDKAKERR
–	binds	TCP13, endogenous (protein, UniProt Q9S7W5 1-355) MNIVSWKDANDEVAGGATTRREREVKEDQEETEVRATSGKTVIKKQPTSISSSSSSWMKSKDPRIVRVSRAFGGKDRHSKVCTLRGLRDRRVRLSVPTAIQLYDLQERLGVDQPSKAVDWLLDAAKEEIDELPPLPISPENFSIFNHHQSFLNLGQRPGQDPTQLGFKINGCVQKSTTTSREENDREKGENDVVYTNNHHVGSYGTYHNLEHHHHHHQHLSLQADYHSHQLHSLVPFPSQILVCPMTTSPTTTTIQSLFPSSSSAGSGTMETLDPRQMVSHFQMPLMGNSSSSSSQNISTLYSLLHGSSSNNGGRDIDNRMSSVQFNRTNSTTTANMSRHLGSERCTSRGSDHHM
